# The list shows a part of the results.
# Amino acid sequences for entries named in this document (tags omitted). A change or cut given only in a name is not applied to a line headed by its entry.
# UniProt Q86VV8: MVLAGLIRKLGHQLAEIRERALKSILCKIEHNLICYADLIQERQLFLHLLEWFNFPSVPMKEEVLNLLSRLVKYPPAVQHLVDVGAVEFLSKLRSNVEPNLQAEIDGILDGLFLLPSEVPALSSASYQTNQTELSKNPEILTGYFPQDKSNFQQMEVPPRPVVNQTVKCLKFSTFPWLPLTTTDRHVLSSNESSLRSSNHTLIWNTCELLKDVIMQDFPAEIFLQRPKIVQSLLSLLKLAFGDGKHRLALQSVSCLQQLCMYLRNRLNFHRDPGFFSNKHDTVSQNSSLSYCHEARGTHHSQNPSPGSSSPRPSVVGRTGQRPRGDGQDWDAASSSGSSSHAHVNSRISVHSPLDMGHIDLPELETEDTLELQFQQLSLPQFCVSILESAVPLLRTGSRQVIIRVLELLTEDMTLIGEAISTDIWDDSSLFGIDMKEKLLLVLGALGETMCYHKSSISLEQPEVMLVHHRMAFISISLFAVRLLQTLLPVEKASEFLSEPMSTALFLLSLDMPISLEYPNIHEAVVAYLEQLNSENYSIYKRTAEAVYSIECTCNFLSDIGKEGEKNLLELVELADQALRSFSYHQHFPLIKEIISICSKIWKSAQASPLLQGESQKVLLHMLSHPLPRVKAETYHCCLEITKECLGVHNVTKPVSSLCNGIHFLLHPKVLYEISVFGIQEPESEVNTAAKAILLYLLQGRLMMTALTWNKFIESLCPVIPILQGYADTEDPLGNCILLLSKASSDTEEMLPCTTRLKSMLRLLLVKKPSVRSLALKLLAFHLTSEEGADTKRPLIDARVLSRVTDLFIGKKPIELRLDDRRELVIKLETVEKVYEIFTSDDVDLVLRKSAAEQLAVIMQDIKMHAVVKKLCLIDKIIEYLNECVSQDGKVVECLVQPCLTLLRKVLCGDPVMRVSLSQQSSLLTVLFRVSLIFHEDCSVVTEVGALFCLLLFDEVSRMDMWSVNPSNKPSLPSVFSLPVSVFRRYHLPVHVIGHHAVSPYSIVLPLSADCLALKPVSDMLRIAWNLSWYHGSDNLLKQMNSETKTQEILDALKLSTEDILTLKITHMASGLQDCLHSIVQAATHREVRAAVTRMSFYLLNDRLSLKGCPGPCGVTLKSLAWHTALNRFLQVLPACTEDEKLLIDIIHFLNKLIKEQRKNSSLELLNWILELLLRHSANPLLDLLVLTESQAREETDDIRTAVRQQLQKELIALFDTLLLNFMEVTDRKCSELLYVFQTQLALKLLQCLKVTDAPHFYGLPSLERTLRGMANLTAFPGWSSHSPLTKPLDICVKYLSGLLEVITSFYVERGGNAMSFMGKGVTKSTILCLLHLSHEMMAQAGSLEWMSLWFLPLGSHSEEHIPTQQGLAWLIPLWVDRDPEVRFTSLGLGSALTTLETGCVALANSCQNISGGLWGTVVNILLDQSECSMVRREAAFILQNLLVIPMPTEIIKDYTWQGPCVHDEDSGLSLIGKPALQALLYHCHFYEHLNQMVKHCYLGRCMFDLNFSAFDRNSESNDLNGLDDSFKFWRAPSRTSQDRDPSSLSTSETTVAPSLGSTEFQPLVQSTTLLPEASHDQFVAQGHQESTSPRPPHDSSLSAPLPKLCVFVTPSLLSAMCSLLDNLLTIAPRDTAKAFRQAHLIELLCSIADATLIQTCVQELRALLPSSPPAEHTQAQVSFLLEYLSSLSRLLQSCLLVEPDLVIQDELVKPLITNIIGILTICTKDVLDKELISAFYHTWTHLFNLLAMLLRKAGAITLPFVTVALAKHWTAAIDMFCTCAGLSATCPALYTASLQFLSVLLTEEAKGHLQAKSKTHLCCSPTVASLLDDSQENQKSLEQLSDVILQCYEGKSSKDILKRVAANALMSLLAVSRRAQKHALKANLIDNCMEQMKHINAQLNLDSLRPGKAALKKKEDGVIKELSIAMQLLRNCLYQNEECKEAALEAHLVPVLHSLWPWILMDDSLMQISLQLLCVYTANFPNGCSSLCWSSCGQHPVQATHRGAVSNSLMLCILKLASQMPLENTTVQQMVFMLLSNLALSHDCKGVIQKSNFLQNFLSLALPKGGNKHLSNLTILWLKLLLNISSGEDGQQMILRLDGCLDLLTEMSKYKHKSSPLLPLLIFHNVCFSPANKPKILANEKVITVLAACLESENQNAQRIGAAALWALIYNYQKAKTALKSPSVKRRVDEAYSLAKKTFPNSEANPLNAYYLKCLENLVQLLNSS
# UniProt P31949: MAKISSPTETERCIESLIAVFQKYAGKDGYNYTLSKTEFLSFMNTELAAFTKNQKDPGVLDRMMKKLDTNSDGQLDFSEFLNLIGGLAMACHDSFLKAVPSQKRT
# UniProt P29034: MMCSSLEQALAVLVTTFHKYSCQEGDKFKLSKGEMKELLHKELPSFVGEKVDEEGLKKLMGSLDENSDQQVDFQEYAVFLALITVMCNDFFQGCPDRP
# UniProt Q7L4I2: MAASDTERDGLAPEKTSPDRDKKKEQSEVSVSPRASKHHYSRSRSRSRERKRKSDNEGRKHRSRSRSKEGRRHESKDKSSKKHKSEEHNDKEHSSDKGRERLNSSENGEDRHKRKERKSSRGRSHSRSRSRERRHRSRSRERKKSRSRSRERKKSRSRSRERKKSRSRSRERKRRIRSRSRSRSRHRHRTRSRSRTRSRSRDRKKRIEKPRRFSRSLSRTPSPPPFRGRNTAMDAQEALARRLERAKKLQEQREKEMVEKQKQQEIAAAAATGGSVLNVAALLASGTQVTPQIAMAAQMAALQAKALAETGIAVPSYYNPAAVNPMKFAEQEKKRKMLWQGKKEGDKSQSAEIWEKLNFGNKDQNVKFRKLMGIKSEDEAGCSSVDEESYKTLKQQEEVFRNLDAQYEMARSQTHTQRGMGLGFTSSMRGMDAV
# UniProt P57060: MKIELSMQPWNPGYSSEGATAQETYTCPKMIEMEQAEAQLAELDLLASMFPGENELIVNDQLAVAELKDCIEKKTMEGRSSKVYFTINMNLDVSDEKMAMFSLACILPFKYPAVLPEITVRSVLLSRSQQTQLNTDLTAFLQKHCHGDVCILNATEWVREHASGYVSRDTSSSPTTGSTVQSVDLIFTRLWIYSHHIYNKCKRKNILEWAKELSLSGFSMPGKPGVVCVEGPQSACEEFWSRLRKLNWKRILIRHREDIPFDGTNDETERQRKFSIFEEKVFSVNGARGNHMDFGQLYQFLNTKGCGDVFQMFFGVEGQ
# UniProt Q96T23: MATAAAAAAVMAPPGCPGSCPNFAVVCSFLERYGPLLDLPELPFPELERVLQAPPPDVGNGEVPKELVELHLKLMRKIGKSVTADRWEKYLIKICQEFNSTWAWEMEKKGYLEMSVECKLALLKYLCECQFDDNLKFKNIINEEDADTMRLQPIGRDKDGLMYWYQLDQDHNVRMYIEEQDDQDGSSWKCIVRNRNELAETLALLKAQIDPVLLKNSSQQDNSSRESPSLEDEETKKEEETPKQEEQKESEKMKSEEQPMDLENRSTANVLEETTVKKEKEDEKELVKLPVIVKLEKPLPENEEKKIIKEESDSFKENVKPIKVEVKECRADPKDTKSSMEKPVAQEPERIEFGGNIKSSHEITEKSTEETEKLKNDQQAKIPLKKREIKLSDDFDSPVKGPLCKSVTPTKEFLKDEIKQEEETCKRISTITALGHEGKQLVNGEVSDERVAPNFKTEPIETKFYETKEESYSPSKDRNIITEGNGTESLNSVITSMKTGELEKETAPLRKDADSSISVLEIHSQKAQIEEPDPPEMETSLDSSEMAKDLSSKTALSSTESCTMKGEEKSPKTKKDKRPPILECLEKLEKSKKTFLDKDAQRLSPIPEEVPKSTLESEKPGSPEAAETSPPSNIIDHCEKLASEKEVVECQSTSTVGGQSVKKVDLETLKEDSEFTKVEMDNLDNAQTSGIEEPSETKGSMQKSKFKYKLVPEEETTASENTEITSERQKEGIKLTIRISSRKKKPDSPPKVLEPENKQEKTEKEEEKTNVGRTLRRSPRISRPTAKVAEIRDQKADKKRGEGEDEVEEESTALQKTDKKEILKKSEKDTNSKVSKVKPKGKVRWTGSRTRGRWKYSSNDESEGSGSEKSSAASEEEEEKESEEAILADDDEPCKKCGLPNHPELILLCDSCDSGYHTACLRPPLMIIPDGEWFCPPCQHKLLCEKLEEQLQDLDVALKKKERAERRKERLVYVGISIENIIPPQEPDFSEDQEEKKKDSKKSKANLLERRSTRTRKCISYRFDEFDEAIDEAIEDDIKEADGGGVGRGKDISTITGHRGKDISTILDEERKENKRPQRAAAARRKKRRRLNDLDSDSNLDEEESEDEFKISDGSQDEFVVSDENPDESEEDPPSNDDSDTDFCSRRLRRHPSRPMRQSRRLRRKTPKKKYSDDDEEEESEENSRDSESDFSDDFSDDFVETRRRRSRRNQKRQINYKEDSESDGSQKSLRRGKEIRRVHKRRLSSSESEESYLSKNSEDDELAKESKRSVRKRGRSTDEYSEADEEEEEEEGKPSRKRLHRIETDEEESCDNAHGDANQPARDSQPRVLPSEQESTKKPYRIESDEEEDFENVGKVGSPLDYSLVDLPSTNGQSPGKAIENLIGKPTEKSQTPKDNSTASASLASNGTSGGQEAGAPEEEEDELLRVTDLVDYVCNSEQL
# UniProt Q9HCY8: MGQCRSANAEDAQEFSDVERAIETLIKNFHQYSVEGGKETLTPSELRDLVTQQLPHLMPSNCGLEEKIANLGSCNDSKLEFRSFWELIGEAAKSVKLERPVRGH
# UniProt Q9Y3A4: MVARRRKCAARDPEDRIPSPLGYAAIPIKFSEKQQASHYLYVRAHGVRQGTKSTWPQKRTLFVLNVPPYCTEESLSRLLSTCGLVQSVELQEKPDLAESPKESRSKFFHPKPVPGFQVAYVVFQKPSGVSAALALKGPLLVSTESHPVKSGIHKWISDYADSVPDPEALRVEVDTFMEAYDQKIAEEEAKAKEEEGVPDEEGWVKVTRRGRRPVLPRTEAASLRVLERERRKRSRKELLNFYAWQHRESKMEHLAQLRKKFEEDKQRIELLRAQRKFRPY
# UniProt Q9NYV6: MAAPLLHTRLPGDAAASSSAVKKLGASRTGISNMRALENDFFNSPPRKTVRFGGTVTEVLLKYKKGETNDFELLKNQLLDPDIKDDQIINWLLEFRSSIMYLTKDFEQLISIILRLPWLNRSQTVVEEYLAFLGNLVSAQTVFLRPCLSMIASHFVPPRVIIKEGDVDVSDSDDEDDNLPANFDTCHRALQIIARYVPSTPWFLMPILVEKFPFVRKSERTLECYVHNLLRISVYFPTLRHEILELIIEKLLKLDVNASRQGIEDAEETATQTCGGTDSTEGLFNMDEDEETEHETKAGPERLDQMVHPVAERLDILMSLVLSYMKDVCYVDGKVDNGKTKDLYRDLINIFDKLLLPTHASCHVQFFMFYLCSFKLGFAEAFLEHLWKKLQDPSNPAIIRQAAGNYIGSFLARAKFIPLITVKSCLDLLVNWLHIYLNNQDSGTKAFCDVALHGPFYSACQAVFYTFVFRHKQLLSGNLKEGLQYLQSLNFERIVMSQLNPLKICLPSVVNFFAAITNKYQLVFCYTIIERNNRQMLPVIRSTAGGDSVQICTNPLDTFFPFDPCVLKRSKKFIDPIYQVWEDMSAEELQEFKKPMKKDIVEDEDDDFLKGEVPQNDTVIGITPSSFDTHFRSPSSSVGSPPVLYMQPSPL
# UniProt Q96FQ6: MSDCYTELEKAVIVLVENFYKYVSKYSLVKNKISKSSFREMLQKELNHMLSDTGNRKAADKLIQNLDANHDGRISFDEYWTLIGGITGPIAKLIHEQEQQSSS
# UniProt Q96CM3: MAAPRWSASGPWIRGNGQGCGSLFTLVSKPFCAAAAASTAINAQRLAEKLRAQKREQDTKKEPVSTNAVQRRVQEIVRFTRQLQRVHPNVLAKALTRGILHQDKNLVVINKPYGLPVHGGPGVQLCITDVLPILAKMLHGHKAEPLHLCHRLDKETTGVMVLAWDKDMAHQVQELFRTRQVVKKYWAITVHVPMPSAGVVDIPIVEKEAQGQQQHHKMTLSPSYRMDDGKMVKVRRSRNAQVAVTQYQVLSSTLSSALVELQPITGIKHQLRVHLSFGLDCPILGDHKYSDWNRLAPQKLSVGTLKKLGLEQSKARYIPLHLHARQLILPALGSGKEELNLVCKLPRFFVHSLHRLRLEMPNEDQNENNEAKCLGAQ
# UniProt P60903, whole entry, looked up: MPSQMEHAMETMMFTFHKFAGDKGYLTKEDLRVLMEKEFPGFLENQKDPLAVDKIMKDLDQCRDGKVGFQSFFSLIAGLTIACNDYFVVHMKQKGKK
# UniProt Q7L3V2: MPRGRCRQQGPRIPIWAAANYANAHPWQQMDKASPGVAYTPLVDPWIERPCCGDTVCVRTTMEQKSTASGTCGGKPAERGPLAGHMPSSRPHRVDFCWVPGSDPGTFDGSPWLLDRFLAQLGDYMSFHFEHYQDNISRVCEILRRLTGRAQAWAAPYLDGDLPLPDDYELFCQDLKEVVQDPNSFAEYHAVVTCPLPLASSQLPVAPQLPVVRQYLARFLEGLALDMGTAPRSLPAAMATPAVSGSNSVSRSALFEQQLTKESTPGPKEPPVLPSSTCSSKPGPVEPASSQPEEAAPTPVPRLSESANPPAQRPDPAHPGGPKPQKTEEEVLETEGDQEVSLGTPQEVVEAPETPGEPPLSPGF
# Compound: CC(=O)c1cnc2ccc(-c3cc(Cl)c(O)c(Cl)c3)nc2c1N[C@H]1CC[C@H](CN(C)C)CC1
# Experiment: log2 fold change, soluble protein after heating vs DMSO (PISA); higher = thermal stabilisation; K562 lysate, 10 uM; active = over 0.2 and 3.5 SD of the protein, either way, in both replicates (recomputed)
# Outline: (§1)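 Thermal stability, expressed as log-two fold change relative to solvent controls, is given from duplicates. Crude K562 extract in PBS pH 7.4 with 1 mM MgCl2, at 1 mg/mL protein, was treated with 10 μM compound for 30 min and heated in aliquots for 3 min across 48°C-58°C. After pooling, adjustment to 0.5% NP-40 at 4°C and centrifugation at 21,000xg for 90 min, supernatant protein was measured by TMTpro 16plex LC-MS/MS with channel sums equalised.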
row,Target,log2 fold change
1,RPS27L (UniProt Q71UM5),inactive: 0.021
2,RTTN (UniProt Q86VV8),inactive: 0.155
3,S100A11 (UniProt P31949),inactive: -0.049
4,RTCA (UniProt O00442),inactive: -0.001
5,S100A2 (UniProt P29034),inactive: -0.039
6,RSRC2 (UniProt Q7L4I2),inactive: -0.016
7,RYR1 (UniProt P21817),inactive: 0.008
8,RSAD1 (UniProt Q9HA92),inactive: -0.191
9,RPP14 (UniProt O95059),inactive: -0.006
10,RPS26 (UniProt P62854),inactive: 0
11,RPP38 (UniProt P78345),inactive: -0.006
12,RWDD2B (UniProt P57060),inactive: 0.006
13,RREB1 isoform 2 (UniProt Q92766),inactive: 0.13
14,RPP25L (UniProt Q8N5L8),inactive: -0.001
15,RSF1 (UniProt Q96T23),inactive: 0.092
16,"RPS7, A0A2R8Y623",inactive: -0.187
17,S100A14 (UniProt Q9HCY8),inactive: 0.025
18,RPS6KA3 (UniProt P51812),active: 0.56
19,RXRB isoform 3 (UniProt P28702),inactive: -0.037
20,RSBN1L (UniProt Q6PCB5),inactive: -0.029
21,RPN2 (UniProt P04844),inactive: 0.014
22,RPS2 (UniProt P15880),inactive: -0.014
23,RPS3A (UniProt P61247),inactive: 0.02
24,RRP7A (UniProt Q9Y3A4),inactive: 0.018
25,RPS24 isoform 4 (UniProt P62847),inactive: -0.058
26,RRN3 (UniProt Q9NYV6),inactive: -0.007
27,RUFY3 isoform 2 (UniProt Q7L099),inactive: -0.021
28,RPS6KA1 (UniProt Q15418),active: 0.555
29,RUVBL1 (UniProt Q9Y265),inactive: 0.004
30,S100A16 (UniProt Q96FQ6),inactive: -0.022

# Compound: CC(C)(C)Cn1c(N)nc2ccc(-c3[nH]c(C(C)(C)C)nc3-c3ccc(F)cc3)nc21 [ralimetinib]
# Experiment: as above
# Outline: as §1
row,Target,log2 fold change
1,RPS27L (UniProt Q71UM5),inactive: 0.02
2,RTTN (UniProt Q86VV8),inactive: 0.145
3,S100A11 (UniProt P31949),inactive: -0.009
4,RTCA (UniProt O00442),inactive: 0.021
5,S100A2 (UniProt P29034),inactive: 0.088
6,RSRC2 (UniProt Q7L4I2),inactive: -0.004
7,RYR1 (UniProt P21817),inactive: -0.028
8,RSAD1 (UniProt Q9HA92),inactive: 0.098
9,RPP14 (UniProt O95059),inactive: 0.059
10,RPS26 (UniProt P62854),inactive: 0.002
11,RPP38 (UniProt P78345),inactive: -0.01
12,RPUSD4 (UniProt Q96CM3),inactive: -0.059
13,RWDD2B (UniProt P57060),inactive: 0.017
14,RREB1 isoform 2 (UniProt Q92766),inactive: 0.01
15,RPP25L (UniProt Q8N5L8),inactive: -0.024
16,RSF1 (UniProt Q96T23),inactive: -0.025
17,S100A14 (UniProt Q9HCY8),inactive: -0.099
18,RPS6KA3 (UniProt P51812),inactive: -0.004
19,RSBN1L (UniProt Q6PCB5),inactive: -0.001
20,RPN2 (UniProt P04844),inactive: -0.004
21,RPS2 (UniProt P15880),inactive: -0.001
22,RPS3A (UniProt P61247),inactive: 0.009
23,RRP7A (UniProt Q9Y3A4),inactive: 0.049
24,RPS24 isoform 4 (UniProt P62847),inactive: -0.02
25,RRN3 (UniProt Q9NYV6),inactive: 0.098
26,S100A10 (UniProt P60903),inactive: 0.665
27,RUFY3 isoform 2 (UniProt Q7L099),inactive: 0.011
28,RTL10 (UniProt Q7L3V2),inactive: -0.068
29,RPS6KA1 (UniProt Q15418),inactive: 0.32
30,RUVBL1 (UniProt Q9Y265),inactive: -0.008

# From the supplement of paper PMC10849652
